Data: PubChem BioAssay AID2551 (National Center for Advancing Translational Sciences (NCATS), 2010)
Among all 310,000 compounds or so, about 17,000 (5.5%) were called active. This list was built around the results that the source calls inconclusive (neither active nor inactive); the mix of calls is not that of the screen. Calls follow the shape of the dose curve; as a rule, active = well fitted inhibition curve with a large enough effect; inconclusive = small, poorly fitted or top-dose-only effect, or effect the other way; inactive = no such curve, though single readings can be large or run the other way. A potency beside an inconclusive call is a rough fit, not a confirmed value.

By UniProt entry, the sequences of proteins in these tests, tags left out. Where a name states a change or a piece, a line headed by the entry shows the natural chain unless it says otherwise.
UniProt P51450: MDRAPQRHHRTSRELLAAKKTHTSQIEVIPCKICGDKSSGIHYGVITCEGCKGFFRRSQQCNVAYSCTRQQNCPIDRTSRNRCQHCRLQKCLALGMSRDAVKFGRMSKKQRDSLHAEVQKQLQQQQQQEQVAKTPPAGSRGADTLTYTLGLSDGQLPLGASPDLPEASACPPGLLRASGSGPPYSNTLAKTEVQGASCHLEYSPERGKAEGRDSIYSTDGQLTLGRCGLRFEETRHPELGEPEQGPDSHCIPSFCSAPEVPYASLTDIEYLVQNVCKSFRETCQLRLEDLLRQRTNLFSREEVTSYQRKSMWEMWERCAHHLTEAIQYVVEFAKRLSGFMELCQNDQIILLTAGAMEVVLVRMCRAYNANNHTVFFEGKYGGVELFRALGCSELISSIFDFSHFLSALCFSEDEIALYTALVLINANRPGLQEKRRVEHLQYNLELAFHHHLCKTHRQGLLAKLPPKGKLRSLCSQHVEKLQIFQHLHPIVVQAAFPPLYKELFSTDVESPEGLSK

target: Nuclear receptor ROR-gamma (Mus musculus) (UniProt P51450); test: qHTS for inhibitors of ROR gamma transcriptional activity; settings: Drosophila S2 Gal4-RORgamma UAS-luciferase reporter, 20 h; series mostly up to 53.6 µM; also: nearly all actives have a fitted effect of over 60% in size
Outline: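 Drosophila Schneider cells stably carrying a metallothionein-driven Gal4 DBD–ROR gamma fusion and a UAS-Photinus luciferase reporter were exposed to compound for 1 hr, then induced with copper sulfate (700 uM final) for 20 hr at ambient temperature before luminescence reading.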
Potency is read from the fitted curve at half-maximal effect.

Row | Structure (SMILES) | Potency
1 | CCc1cc2c(SCc3nc4sc(C(C)=O)c(C)c4c(=O)[nH]3)ncnc2s1 | active: 10 µM
2 | Cc1ccc(C)c(OCc2ccc(C(=O)N3N=C(C(F)F)CC3(O)C(F)F)o2)c1 (centres undefined) | inactive
3 | O=C(Nc1ccc(F)cc1)c1nc[nH]c1C(=O)Nc1ccccc1[N+](=O)[O-] | inconclusive: 11.2 µM [inhibitor, partial curve, poor fit]
4 | O=C(O)c1ccc(CN2C(=O)c3ccccc3S2(=O)=O)cc1 | inactive
5 | COc1ccc(C)cc1Nc1nc(N)c2cc(OC)c(OC)cc2n1 | inconclusive: 22.4 µM [inhibitor, single point]
6 | C=CCSc1nnc(NC(=O)c2nc(SCC)ncc2Cl)s1 | active: 11.2 µM
7 | CC(C)COc1ccc(-c2cc(C(=O)NN)[nH]n2)cc1 | active: 12.6 µM
8 | COc1ccc(N2CCN(Cc3nc4scc(-c5cccs5)c4c(=O)[nH]3)CC2)cc1 | inconclusive: 0.355 µM [inhibitor, partial curve, poor fit]
9 | Cc1ccc(-n2c(C)cc(C(=S)N3CCOCC3)c2C)cc1C | active: 14.1 µM
10 | Cc1cc(C(=O)NC2CCCc3c2cnn3-c2ccc(C(C)(C)C)cc2)nn1C (centres undefined) | inconclusive: 3.16 µM [activator, single point]
11 | CCOc1ccc(NC(=S)N(CCc2c(C)[nH]c3ccc(C)cc23)Cc2cccnc2)cc1 | inconclusive: 7.94 µM [activator, partial curve]
12 | CC1(C)CC(=O)C=C(NCc2cccc(C(F)(F)F)c2)C1 | inactive
13 | CCOc1ccc(C(=O)C(CN2CCOCC2)c2ccccc2)cc1 (centres undefined) | inconclusive: 12.6 µM [inhibitor, single point]
14 | Cc1ccc(F)c(NC(=O)CCc2ccccc2)c1 | inconclusive: 2.82 µM [activator, full curve, poor fit]
15 | CCOc1ccccc1N(CC(=O)Nc1ccc(OC)c(OC)c1)S(=O)(=O)c1ccccc1 | inconclusive: 17.8 µM [activator, single point]
16 | COC(=O)c1cccc(C23CC4(C2)[C@H](CN(Cc2cccnc2)[C@@H]4c2ccccc2)C3c2ccc(Cl)nc2)c1 (some centres undefined) | inactive
17 | O=[N+]([O-])c1cc([N+](=O)[O-])c(Oc2ccc(Cl)c3cccnc23)cc1NN1CCCCC1 | active: 6.31 µM
18 | CC(C)c1ccc(CN(C(=O)C2COc3ccccc3O2)C2CCS(=O)(=O)C2)cc1 (centres undefined) | inconclusive: 22.4 µM [activator, single point]
19 | CCN1CCCc2cc(CN(CCN3CCOCC3)C(=S)Nc3ccc(OC)cc3)ccc21 | inconclusive: 3.55 µM [inhibitor, partial curve]

Part of the list above, set out differently.
Row,Structure (SMILES),Potency
5,COc1ccc(C)cc1Nc1nc(N)c2cc(OC)c(OC)cc2n1,"inconclusive: 22.4 µM [inhibitor, single point]"
13,CCOc1ccc(C(=O)C(CN2CCOCC2)c2ccccc2)cc1 (centres undefined),"inconclusive: 12.6 µM [inhibitor, single point]"
